In publication PMC12646458, “Structural characterization of the YbbAP-TesA ABC transporter identifies it as a lipid hydrolase complex that extracts hydrophobic compounds from the bacterial inner membrane” (PLOS Biology, 2025):
Results are given in words; binding and its absence hold for the method and conditions named. Some entries that bind do so weakly or less than the wild type.

Columns and labels:
[1] = target: T1, YbbAP ABC transporter (E. coli) (UniProt P0A9T8+P77504); test: co-purification (Ni-affinity chromatography, SDS-PAGE); His-tag on YbbA; YbbA, YbbP and TesA co-expressed in E. coli C43(DE3); Ni-IMAC in detergent; also with ATP or an ATP analogue added
T1 sequence 1: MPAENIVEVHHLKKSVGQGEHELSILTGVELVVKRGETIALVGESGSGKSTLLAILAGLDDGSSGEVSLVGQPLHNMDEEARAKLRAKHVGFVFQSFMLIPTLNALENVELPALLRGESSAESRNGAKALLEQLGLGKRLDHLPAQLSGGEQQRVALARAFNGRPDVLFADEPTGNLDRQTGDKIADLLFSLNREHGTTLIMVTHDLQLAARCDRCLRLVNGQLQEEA
T1 sequence 2: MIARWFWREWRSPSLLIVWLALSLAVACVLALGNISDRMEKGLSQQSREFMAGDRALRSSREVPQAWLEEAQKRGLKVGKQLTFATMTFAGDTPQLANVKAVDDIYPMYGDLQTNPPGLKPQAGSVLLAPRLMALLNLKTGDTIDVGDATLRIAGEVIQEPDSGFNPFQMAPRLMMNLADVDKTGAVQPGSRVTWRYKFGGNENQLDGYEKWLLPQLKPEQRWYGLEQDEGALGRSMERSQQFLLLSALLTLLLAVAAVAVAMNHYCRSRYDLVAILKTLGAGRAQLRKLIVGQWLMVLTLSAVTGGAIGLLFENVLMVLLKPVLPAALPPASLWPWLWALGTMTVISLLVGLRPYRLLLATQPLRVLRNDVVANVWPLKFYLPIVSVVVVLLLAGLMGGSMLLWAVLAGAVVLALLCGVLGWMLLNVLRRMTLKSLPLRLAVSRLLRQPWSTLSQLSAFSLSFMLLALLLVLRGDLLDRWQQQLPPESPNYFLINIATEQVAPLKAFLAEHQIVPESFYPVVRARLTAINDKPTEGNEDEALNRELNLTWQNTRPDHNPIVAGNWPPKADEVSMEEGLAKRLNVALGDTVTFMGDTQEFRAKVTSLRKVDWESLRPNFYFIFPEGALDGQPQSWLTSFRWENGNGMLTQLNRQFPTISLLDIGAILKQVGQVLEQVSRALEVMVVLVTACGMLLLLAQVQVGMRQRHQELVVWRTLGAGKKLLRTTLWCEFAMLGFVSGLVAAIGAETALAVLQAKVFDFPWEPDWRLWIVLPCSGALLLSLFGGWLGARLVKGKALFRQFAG

YbbP [2] = target: T2, YbbP (E. coli, UniProt P77504 1-804); test: as above
T2 construct: YbbP, transmembrane component (10 transmembrane helices, two periplasmic domains) of the YbbAP Type VII ABC transporter, Escherichia coli; source: size exclusion chromatography for structure determination), in 0.01% LMNG
T2 sequence: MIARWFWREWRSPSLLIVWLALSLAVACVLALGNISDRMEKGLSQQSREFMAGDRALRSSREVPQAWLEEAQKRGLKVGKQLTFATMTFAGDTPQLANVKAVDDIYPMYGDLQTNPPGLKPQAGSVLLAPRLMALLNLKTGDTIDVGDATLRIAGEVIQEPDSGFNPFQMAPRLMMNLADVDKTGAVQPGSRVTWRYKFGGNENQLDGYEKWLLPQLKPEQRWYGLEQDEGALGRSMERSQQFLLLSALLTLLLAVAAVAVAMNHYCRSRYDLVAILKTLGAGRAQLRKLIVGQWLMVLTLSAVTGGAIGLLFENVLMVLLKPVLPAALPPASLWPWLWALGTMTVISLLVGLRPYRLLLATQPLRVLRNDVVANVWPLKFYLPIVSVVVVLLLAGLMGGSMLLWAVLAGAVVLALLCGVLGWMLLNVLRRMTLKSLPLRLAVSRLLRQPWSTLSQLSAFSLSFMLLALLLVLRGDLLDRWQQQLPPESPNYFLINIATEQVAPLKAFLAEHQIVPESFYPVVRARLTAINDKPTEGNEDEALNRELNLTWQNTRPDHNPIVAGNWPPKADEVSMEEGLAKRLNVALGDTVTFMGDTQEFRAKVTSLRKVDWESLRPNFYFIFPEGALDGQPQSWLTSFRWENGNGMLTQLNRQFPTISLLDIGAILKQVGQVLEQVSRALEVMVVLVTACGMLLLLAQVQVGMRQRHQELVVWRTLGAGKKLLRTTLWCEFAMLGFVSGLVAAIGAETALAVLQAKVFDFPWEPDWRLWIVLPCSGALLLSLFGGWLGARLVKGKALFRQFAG

[3] = target: T1, YbbAP ABC transporter (E. coli); test: cryo-EM structure; YbbAP-TesA(Ser36Ala) complex with AMP-PNP, co-expressed and co-purified (Ni-affinity, SEC), 0.01% LMNG; 4.6 Å; both purified
YbbA (E. coli) = target: T3, YbbA (E. coli) (UniProt P0A9T8); test: co-purification (Ni-affinity chromatography, SDS-PAGE); His-tag on YbbA; YbbA, YbbP and TesA co-expressed in E. coli C43(DE3); Ni-IMAC in detergent; also with ATP or an ATP analogue added
T3 sequence: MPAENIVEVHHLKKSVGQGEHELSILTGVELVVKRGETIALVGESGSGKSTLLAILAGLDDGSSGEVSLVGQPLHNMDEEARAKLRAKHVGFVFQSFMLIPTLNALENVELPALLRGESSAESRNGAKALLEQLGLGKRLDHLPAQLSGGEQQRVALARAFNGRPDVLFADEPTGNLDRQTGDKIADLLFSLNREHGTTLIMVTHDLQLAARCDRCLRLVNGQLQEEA

YbbP [4] = target: T2, YbbP; test: cryo-EM structure; YbbAP with AMP-PNP, co-expressed and co-purified (Ni-affinity, SEC), 0.01% LMNG; 3.7 Å; both purified
YbbP [5] = target: T2, YbbP; test: cryo-EM structure; nucleotide-free (apo) YbbAP, co-expressed and co-purified (Ni-affinity, SEC), 0.01% LMNG; 4.0 Å; both purified

B1: TesA (enzyme, UniProt P0ADA1 27-208)
chain: ADTLLILGDSLSAGYRMSASAAWPALLNDKWQSKTSVVNASISGDTSQQGLARLPALLKQHQPRWVLVELGGNDGLRGFQPQQTEQTLRQILQDVKAANAEPLLMQIRLPANYGRRYNEAFSAIYPKLAKEFDVPLLPFFMEEVYLKPQWMQDDGIHPNRDAQPFIADWMAKQLQPLVNHDS
- binding [1]: binds
- binding (YbbP [2]): binds

B2: TesA Ser36Ala (enzyme, E. coli, UniProt P0ADA1 27-208, looked up)
chain: ADTLLILGDALSAGYRMSASAAWPALLNDKWQSKTSVVNASISGDTSQQGLARLPALLKQHQPRWVLVELGGNDGLRGFQPQQTEQTLRQILQDVKAANAEPLLMQIRLPANYGRRYNEAFSAIYPKLAKEFDVPLLPFFMEEVYLKPQWMQDDGIHPNRDAQPFIADWMAKQLQPLVNHDS
notes: TesA, periplasmic multifunctional esterase/thioesterase/lysophospholipase, Escherichia coli, with the catalytic site mutation Ser36Ala; printed residue numbers fit the precursor with its signal peptide; also called TesA catalytic site mutation (Ser36Ala); source: size exclusion chromatography for structure determination), in 0.01% LMNG
- binding [3]: binds
- binding [1]: binds

B3: YbbP (protein, UniProt P77504 1-804)
chain: MIARWFWREWRSPSLLIVWLALSLAVACVLALGNISDRMEKGLSQQSREFMAGDRALRSSREVPQAWLEEAQKRGLKVGKQLTFATMTFAGDTPQLANVKAVDDIYPMYGDLQTNPPGLKPQAGSVLLAPRLMALLNLKTGDTIDVGDATLRIAGEVIQEPDSGFNPFQMAPRLMMNLADVDKTGAVQPGSRVTWRYKFGGNENQLDGYEKWLLPQLKPEQRWYGLEQDEGALGRSMERSQQFLLLSALLTLLLAVAAVAVAMNHYCRSRYDLVAILKTLGAGRAQLRKLIVGQWLMVLTLSAVTGGAIGLLFENVLMVLLKPVLPAALPPASLWPWLWALGTMTVISLLVGLRPYRLLLATQPLRVLRNDVVANVWPLKFYLPIVSVVVVLLLAGLMGGSMLLWAVLAGAVVLALLCGVLGWMLLNVLRRMTLKSLPLRLAVSRLLRQPWSTLSQLSAFSLSFMLLALLLVLRGDLLDRWQQQLPPESPNYFLINIATEQVAPLKAFLAEHQIVPESFYPVVRARLTAINDKPTEGNEDEALNRELNLTWQNTRPDHNPIVAGNWPPKADEVSMEEGLAKRLNVALGDTVTFMGDTQEFRAKVTSLRKVDWESLRPNFYFIFPEGALDGQPQSWLTSFRWENGNGMLTQLNRQFPTISLLDIGAILKQVGQVLEQVSRALEVMVVLVTACGMLLLLAQVQVGMRQRHQELVVWRTLGAGKKLLRTTLWCEFAMLGFVSGLVAAIGAETALAVLQAKVFDFPWEPDWRLWIVLPCSGALLLSLFGGWLGARLVKGKALFRQFAG
- binding (YbbA (E. coli)): binds

B4: YbbA (natural protein, E. coli)
chain: MPAENIVEVHHLKKSVGQGEHELSILTGVELVVKRGETIALVGESGSGKSTLLAILAGLDDGSSGEVSLVGQPLHNMDEEARAKLRAKHVGFVFQSFMLIPTLNALENVELPALLRGESSAESRNGAKALLEQLGLGKRLDHLPAQLSGGEQQRVALARAFNGRPDVLFADEPTGNLDRQTGDKIADLLFSLNREHGTTLIMVTHDLQLAARCDRCLRLVNGQLQEEA
notes: also called ABC domain; source: size exclusion chromatography for structure determination), in 0.01% LMNG
- binding (YbbP [4]): binds
- binding (YbbP [5]): binds
